Results from patent US9737520B2, “Aclidinium for use in improving the quality of sleep in respiratory patients” (Almirall, S.A., priority 2011, dated 2017).
At least one structure is not confirmed: it was looked up by name or label, or the drawing left a doubt.

Tests used:
[1] = system: COPD patients with FEV1/FVC<70%; assay: Double-blind, randomised, placebo-controlled Phase III trial; quality of sleep and rescue medication use (Example 2); assay type: in vivo, human
[2] = system: patients with moderate to severe COPD; assay: Phase IIa randomized, double-blind, crossover trial; sleep quality on patient diary card (Example 1); assay type: in vivo, human; conditions: aclidinium 400 micrograms twice-daily, 15 days; compared to untreated patients
[3] = 200 mcg and 400 mcg twice-daily, Week 12
[4] = both doses (200 and 400 micrograms twice-daily)

## O=C(O[C@H]1C[N+]2(CCCOc3ccccc3)CCC1CC2)C(O)(c1cccs1)c1cccs1 [aclidinium, 3(R)-(2-hydroxy-2,2-dithien-2-ylacetoxy)-1-(3-phenoxypropyl)-1-azoniabicyclo[2.2.2]octane]
[1]; [3]
  difficulty to fall back sleep: significantly reduced
  frequency of awakenings: significantly reduced
  production of sputum: reduced
  severity of breathlessness and cough at night: significantly reduced
  use of rescue medication: reduced
[1]; Week 12, twice-daily, compared to placebo
  quality of sleep: significantly improved the quality of sleep
[1]; [4]
  impact of breathlessness and cough on morning activities: significantly reduced
  severity of early morning breathlessness: significantly reduced
[2]
  quality of sleep (0-4 diary card score): significantly improved quality of sleep
